# Paper doi:10.1101/144360 (bioRxiv, 2017)
# Amino acid sequences for entries named in this document (tags omitted).
# UniProt P38261: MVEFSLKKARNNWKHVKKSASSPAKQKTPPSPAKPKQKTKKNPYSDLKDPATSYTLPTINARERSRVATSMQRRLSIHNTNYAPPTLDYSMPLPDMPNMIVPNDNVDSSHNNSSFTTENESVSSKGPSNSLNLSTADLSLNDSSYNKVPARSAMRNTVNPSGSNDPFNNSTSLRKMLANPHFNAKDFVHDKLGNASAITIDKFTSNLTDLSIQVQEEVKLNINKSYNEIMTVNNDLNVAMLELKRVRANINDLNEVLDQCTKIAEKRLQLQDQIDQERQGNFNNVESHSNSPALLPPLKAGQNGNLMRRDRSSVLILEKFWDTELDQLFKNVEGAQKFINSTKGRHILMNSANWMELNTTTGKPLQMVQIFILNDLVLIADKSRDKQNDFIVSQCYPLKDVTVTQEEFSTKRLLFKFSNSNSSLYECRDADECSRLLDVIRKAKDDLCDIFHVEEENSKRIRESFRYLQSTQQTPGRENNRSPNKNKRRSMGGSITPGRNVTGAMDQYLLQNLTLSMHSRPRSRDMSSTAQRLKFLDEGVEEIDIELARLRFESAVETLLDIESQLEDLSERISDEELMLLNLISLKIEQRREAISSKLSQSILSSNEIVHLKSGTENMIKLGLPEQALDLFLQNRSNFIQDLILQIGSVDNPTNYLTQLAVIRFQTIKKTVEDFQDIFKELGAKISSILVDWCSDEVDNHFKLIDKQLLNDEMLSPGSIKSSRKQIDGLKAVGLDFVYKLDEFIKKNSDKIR
# UniProt P19658: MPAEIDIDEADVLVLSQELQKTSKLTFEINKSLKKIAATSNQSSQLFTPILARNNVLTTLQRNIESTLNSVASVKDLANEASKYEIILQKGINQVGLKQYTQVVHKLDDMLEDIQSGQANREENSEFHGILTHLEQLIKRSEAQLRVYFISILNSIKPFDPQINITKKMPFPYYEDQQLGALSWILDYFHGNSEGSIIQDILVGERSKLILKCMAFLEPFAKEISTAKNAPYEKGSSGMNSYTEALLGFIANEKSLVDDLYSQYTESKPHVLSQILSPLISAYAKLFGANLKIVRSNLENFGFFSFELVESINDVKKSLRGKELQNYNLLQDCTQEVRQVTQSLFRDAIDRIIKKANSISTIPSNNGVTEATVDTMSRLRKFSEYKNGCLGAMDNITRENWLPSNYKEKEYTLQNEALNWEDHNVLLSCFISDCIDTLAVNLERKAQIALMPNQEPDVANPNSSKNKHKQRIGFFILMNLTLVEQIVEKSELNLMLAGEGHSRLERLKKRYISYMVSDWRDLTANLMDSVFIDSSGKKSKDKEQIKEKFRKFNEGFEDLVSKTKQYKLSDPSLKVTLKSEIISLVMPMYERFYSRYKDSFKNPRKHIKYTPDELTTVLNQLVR
# UniProt P19073: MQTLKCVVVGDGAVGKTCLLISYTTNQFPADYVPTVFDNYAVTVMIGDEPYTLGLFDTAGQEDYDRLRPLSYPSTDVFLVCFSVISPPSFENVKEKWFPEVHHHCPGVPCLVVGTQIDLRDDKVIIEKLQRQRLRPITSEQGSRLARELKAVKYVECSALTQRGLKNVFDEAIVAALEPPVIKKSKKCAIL
# Like-named read-outs stand apart in the source and are kept apart here. No constants are given. Whether binding was seen depends on the method and setting. Binding seen in cells or lysates may run through a third protein. Some results given as binding are weak or reduced against the parent protein; the word gives no strength. For some assays here: Tags and fused reporters may be left off the sequences shown.
# T1: GST-SH3_(Boi1) (S. cerevisiae) (UniProt P38041)
# T1 sequence: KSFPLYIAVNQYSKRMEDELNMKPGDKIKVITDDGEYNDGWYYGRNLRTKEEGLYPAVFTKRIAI
# T2: Boi1CRU (S. cerevisiae) (UniProt P38041)
# T2 sequence: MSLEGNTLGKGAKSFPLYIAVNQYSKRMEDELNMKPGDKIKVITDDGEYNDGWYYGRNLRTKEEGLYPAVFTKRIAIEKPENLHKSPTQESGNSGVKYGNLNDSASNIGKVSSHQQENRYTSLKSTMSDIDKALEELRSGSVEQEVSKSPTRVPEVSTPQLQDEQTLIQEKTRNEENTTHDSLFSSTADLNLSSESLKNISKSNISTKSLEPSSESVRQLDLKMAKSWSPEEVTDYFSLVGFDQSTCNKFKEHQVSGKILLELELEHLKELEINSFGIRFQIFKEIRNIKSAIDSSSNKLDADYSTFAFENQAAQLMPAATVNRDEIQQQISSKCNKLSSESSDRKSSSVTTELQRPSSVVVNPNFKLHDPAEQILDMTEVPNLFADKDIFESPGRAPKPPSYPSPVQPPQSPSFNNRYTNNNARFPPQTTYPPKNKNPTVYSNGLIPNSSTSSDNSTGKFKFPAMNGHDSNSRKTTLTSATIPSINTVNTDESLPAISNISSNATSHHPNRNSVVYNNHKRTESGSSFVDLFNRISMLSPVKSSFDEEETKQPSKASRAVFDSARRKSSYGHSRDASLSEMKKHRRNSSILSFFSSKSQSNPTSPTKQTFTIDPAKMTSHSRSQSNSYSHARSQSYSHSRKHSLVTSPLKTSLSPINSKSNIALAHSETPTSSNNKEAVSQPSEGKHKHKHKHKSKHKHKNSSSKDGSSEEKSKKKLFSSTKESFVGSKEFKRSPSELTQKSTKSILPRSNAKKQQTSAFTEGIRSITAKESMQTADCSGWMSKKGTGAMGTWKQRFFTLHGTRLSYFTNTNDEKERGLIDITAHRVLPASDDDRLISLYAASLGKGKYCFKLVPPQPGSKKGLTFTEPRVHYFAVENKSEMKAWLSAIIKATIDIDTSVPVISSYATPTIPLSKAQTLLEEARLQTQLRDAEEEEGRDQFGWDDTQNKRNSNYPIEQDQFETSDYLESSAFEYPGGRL
# T3: Boi2CRU (S. cerevisiae) (UniProt P39969)
# T3 sequence: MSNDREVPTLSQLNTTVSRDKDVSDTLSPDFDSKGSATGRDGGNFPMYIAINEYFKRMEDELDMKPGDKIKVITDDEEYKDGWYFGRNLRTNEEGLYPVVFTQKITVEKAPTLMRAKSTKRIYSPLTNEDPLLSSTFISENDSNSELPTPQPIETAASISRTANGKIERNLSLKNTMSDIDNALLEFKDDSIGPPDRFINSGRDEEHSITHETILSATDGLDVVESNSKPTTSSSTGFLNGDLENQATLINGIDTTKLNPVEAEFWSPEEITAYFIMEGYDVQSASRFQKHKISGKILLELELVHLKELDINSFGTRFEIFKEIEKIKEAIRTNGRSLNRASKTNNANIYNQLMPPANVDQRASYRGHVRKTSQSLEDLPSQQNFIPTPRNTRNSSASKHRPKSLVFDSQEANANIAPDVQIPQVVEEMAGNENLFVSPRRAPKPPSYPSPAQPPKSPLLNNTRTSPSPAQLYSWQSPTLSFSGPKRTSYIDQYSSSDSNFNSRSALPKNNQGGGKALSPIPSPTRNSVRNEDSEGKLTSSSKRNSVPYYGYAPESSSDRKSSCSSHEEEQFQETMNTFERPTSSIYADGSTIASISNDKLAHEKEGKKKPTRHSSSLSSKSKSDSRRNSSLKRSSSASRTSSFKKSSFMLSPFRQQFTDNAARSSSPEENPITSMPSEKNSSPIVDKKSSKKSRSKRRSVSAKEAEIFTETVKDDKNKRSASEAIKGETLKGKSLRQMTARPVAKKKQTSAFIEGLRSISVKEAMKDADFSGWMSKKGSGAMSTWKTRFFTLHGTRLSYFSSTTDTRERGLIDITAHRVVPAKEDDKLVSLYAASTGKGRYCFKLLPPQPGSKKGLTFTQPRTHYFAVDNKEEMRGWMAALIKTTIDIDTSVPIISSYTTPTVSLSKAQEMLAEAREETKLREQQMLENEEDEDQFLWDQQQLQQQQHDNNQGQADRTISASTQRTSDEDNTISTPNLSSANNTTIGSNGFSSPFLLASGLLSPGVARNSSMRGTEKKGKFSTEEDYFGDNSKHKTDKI
# T4: Boi1Cherry-Cub-GFP (S. cerevisiae) (UniProt P38041)
# T4 sequence: T2 sequence
# T5: Sec8p CRU fusion (S. cerevisiae) (UniProt P32855)
# T5 sequence: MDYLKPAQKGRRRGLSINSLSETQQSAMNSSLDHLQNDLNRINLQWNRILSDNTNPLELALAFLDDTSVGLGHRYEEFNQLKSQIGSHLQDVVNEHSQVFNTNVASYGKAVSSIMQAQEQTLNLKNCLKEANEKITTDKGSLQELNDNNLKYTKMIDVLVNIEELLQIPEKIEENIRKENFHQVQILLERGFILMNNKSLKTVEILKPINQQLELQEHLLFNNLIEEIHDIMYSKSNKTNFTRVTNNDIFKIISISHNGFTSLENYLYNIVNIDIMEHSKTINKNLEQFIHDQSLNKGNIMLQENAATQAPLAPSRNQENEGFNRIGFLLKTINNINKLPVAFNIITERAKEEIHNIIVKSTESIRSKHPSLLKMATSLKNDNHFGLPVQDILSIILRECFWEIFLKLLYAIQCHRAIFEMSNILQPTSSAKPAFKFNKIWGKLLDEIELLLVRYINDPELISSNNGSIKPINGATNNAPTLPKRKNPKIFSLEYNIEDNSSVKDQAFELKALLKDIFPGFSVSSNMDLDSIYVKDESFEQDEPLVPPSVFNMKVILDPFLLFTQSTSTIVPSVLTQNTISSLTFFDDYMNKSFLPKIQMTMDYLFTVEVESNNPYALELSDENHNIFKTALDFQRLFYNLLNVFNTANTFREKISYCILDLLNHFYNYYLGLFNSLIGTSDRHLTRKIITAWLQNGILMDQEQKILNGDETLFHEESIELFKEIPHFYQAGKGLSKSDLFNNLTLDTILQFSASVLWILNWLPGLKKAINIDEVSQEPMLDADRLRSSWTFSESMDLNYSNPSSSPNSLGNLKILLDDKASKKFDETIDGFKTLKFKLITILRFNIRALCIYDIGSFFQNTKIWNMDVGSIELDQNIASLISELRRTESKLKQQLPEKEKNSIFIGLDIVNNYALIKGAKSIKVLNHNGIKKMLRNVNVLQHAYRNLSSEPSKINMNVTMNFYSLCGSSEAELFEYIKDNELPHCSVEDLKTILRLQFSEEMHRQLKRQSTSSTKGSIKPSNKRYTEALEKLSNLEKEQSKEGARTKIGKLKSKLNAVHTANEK
# T6: Sec6p CRU fusion (S. cerevisiae) (UniProt P32844)
# T6 sequence: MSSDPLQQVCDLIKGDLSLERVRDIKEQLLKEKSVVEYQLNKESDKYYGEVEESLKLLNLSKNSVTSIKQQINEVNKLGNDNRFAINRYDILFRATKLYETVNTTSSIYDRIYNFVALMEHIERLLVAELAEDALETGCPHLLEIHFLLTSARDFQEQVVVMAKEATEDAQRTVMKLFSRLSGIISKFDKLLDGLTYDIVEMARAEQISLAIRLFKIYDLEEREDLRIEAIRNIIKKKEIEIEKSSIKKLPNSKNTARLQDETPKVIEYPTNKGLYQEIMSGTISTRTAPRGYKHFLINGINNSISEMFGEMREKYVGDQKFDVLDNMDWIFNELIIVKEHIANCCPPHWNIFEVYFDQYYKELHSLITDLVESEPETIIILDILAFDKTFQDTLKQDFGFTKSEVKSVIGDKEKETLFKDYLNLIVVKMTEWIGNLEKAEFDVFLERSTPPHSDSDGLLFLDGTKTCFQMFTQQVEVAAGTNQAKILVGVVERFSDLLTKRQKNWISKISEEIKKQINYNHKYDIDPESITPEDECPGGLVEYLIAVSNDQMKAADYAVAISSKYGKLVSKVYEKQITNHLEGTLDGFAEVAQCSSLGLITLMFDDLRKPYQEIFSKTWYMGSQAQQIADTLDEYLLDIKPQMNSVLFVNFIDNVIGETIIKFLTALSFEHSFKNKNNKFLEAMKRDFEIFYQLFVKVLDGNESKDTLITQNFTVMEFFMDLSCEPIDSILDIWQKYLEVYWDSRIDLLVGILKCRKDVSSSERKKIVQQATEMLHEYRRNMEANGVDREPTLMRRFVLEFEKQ
# B1: Nub-Ptc1p (protein, UniProt P35182 1-281)
# chain: MSNHSEILERPETPYDITYRVGVAENKNSKFRRTMEDVHTYVKNFASRLDWGYFAVFDGHAGIQASKWCGKHLHTIIEQNILADETRDVRDVLNDSFLAIDEEINTKLVGNSGCTAAVCVLRWELPDSVSDDSMDLAQHQRKLYTANVGDSRIVLFRNGNSIRLTYDHKASDTLEMQRVEQAGGLIMKSRVNGMLAVTRSLGDKFFDSLVVGSPFTTSVEITSEDKFLILACDGLWDVIDDQDACELIKDITEPNEAAKVLVRYALENGTTDNVTVMVVFL
# B2: Nub-Boi2p (protein, UniProt P39969 1-1040)
# chain: T3 sequence
# B3: Nub-Bem1p (protein, UniProt P29366 1-551)
# chain: MLKNFKLSKRDSNGSKGRITSADISTPSHDNGSVIKHIKTVPVRYLSSSSTPVKSQRDSSPKNRHNSKDITSPEKVIKAKYSYQAQTSKELSFMEGEFFYVSGDEKDWYKASNPSTGKEGVVPKTYFEVFDRTKPSSVNGSNSSSRKVTNDSLNMGSLYAIVLYDFKAEKADELTTYVGENLFICAHHNCEWFIAKPIGRLGGPGLVPVGFVSIIDIATGYATGNDVIEDIKSVNLPTVQEWKSNIARYKASNISLGSVEQQQQQSITKPQNKSAKLVDGELLVKASVESFGLEDEKYWFLVCCELSNGKTRQLKRYYQDFYDLQVQLLDAFPAEAGKLRDAGGQWSKRIMPYIPGPVPYVTNSITKKRKEDLNIYVADLVNLPDYISRSEMVHSLFVVLNNGFDREFERDENQNNIKTLQENDTATFATASQTSNFASTNQDNTLTGEDLKLNKKLSDLSLSGSKQAPAQSTSGLKTTKIKFYYKDDIFALMLKGDTTYKELRSKIAPRIDTDNFKLQTKLFDGSGEEIKTDSQVSNIIQAKLKISVHDI
# How the values were obtained:
# [1] = target: T1, GST-SH3_(Boi1) (S. cerevisiae); assay: pull-down
# Boi1CRU (S. cerevisiae) [2] = target: T2, Boi1CRU (S. cerevisiae); assay: split reporter
# Boi2CRU (S. cerevisiae) [3] = target: T3, Boi2CRU (S. cerevisiae); assay: split reporter
# [4] = target: PH_(Boi1)CRU (S. cerevisiae) (UniProt P38041); assay: split reporter
# [5] = target: T4, Boi1Cherry-Cub-GFP (S. cerevisiae); assay: split reporter
# [6] = target: T5, Sec8p CRU fusion (S. cerevisiae); assay: split reporter
# Exo84CRU (S. cerevisiae) = Exo84CRU (S. cerevisiae) (UniProt P38261); assay: split reporter
# [7] = target: Exo70p CRU fusion (S. cerevisiae) (UniProt P19658); assay: split reporter
# [8] = target: T6, Sec6p CRU fusion (S. cerevisiae); assay: split reporter
# Boi1CRU (S. cerevisiae) [9] = target: T2, Boi1CRU (S. cerevisiae); assay: split reporter; remark: listed apart in the source
# Boi2CRU (S. cerevisiae) [10] = target: T3, Boi2CRU (S. cerevisiae); assay: split reporter; remark: listed apart in the source
molecule,measurement,setting,value
9xMYC fusion to Exo84p (from UniProt P38261 1-753),binding,[1],binds
Nub-Cdc42p (from UniProt P19073 1-191),binding,Boi1CRU (S. cerevisiae) [2],binds
same,binding,Boi2CRU (S. cerevisiae) [3],binds
same,binding,[4],binds
B1,binding,[5],no binding
B2,binding,[6],binds
same,binding,Exo84CRU (S. cerevisiae),binds
same,binding,[7],binds
same,binding,[8],binds
B3,binding,Boi1CRU (S. cerevisiae) [9],binds
same,binding,Boi2CRU (S. cerevisiae) [10],binds
